Our source for the IC50 values is paper PMC10872542 (Structure (London, England : 1993), 2023).

Protein sequences, listed by entry. Tags and fused reporters are not part of them.
UniProt Q9XSM3, whole entry F472A: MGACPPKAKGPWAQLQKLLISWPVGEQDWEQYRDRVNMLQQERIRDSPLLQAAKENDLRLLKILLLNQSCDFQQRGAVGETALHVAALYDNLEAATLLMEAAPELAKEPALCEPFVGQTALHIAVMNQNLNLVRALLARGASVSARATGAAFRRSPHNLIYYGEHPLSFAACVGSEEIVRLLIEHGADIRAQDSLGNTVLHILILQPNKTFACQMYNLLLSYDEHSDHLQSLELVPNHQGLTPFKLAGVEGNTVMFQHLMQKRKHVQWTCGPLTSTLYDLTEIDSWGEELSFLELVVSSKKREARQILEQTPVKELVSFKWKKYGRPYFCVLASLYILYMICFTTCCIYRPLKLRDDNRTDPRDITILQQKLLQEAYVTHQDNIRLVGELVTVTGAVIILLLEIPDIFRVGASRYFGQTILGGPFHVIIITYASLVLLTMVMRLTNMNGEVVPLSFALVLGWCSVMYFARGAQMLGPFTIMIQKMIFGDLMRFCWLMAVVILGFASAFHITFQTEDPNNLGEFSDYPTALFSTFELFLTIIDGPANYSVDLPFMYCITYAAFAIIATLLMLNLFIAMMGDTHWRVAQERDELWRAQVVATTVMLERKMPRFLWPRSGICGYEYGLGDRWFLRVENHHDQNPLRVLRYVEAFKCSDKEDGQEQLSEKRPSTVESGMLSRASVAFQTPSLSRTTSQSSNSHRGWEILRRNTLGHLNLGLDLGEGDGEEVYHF
UniProt Q9XSM3, whole entry L475A: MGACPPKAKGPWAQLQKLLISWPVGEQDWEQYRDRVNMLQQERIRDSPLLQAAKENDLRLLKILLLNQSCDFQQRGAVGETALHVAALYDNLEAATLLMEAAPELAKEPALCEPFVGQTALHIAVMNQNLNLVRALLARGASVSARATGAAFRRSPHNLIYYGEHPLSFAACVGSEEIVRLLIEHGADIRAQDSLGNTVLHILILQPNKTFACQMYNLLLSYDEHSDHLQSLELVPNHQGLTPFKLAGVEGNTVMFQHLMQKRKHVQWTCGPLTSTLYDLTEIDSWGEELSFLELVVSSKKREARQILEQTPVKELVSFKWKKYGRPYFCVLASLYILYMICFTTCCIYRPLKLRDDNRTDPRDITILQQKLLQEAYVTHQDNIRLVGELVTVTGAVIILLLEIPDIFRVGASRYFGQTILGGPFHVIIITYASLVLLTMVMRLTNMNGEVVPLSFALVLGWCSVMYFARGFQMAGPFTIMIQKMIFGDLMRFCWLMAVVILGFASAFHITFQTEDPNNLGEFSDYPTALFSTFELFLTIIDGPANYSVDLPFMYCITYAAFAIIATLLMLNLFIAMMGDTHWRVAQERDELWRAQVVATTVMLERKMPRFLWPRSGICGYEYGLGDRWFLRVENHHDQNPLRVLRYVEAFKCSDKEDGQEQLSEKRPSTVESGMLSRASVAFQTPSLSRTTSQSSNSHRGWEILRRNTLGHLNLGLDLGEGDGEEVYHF

One test has as its target rbTRPV5 F472A mutant (Oryctolagus cuniculus, UniProt Q9XSM3, F472A). The experiment in a line: cell-based.
A further test has as its target wild-type rbTRPV5 (Oryctolagus cuniculus, UniProt Q9XSM3). The experiment in a line: cell-based.
Another test deals with rbTRPV5 L475A mutant (Oryctolagus cuniculus, UniProt Q9XSM3, L475A). Put plainly: cell-based.
Another test deals with TRPV5. The note with it: read-out: IC50 of TRPV5 inhibition; cited from earlier work.

`Clc1ccc(COC(Cn2ccnc2)c2ccc(Cl)cc2Cl)cc1` (centres unmarked) [econazole]: the IC50 was greater than 30 µM against rbTRPV5 F472A mutant, 13 ± 2 µM against wild-type rbTRPV5, greater than 30 µM on rbTRPV5 L475A mutant and 1.3 to 2 µM in the test on TRPV5.

On to `Clc1ccc(COC(Cn2ccnc2)c2ccc(Cl)cc2Cl)c(Cl)c1` (centres unmarked) [miconazole], for which, in the test on TRPV5, the IC50 is roughly 1.7 µM.
